A short description of experiment [1]: NCATS anti-infectives library activity on the primary C. elegans qHTS viability assay (AID 1745855). The settings on record: C. elegans worm area imaging. In short, it runs like this:
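Viability is taken from GFP fluorescence of PE254-GFP-FLuc C. elegans imaged by laser cytometry over 7 days. Ten L1 worms per well grow at 21 °C on TOP10 E. coli capsules with titrated compound; levamisole marks toxicity.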

Chains of the proteins cited; added tags and fusions are not shown. Lines headed by an entry give the natural chain unless they say otherwise; changes in a name come on top.
UniProt P50135: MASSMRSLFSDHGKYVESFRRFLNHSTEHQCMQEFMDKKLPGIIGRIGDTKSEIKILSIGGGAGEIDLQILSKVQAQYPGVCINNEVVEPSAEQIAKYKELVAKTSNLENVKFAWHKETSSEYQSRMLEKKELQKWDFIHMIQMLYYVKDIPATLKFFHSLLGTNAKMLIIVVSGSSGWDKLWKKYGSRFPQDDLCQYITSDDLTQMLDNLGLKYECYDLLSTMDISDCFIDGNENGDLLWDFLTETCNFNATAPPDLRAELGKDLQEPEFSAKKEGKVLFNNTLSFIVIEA
UniProt P40261: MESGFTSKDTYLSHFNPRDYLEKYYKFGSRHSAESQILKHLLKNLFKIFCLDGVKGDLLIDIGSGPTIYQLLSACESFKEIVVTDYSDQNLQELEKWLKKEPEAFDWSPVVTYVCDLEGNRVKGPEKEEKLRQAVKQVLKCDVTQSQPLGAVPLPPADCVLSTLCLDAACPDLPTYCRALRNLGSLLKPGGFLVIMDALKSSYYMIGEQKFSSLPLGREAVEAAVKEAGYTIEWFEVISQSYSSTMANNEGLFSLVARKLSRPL
UniProt P11086: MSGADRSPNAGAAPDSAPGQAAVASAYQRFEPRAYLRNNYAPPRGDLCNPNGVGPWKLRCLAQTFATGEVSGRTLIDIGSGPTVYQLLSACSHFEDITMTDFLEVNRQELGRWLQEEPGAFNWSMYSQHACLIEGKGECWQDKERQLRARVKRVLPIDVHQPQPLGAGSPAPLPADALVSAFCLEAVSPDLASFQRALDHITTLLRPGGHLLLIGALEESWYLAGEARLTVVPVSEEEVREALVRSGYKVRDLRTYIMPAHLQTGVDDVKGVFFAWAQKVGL

Experiment [2] addresses Histamine N-methyltransferase (Homo sapiens) (UniProt P50135). Description: Confirmatory Screen for Target Class Profiling of Small Molecule Inhibitors of Methyltransferases (AID 1745852). The settings on record: MTase-Glo luminescence, SAH detection, recombinant enzyme; measured here: HNMT inhibition potency.
Experiment [3] can be described thus: qHTS drug screen for cell cycle checkpoint inhibitors in PARPi-resistant BRCA-mutant ovarian cancer cell lines. (AID 1963452). The settings on record: PEO1/OlaR viability, CellTiter-Glo luminescence, 96 h. The procedure, abridged:
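PEO1, PEO4 and PEO1/OlaR ovarian cancer cells, 600 per well, exposed 96 h at 37C to a dilution series. Viability read by CellTiter-Glo luminescence, normalized to DMSO and empty wells; activity summarized as Z-AUC.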
A general note: In qHTS, concentration-response curves come from the screen itself.

Experiment [4] can be described thus: qHTS for identification of novel therapeutic agents for treatment of microphthalmiaassociated transcription factor (MiT) renal cell carcinoma (RCC) (AID 1963991). To be noted: CellTiter-Glo, 48 h; for z-score: stronger effect = lower value. The procedure, abridged: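 Curves over 11 concentrations were fitted to CellTiter-Glo luminescence, scaled between empty wells (0%) and DMSO (100%) viability. Cells were UOK109, UOK124 and UOK145 TFE3-fusion RCC lines at 500/well, exposed 48 hours at 37 C.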

For experiment [5], the target named is Nicotinamide N-methyltransferase (Homo sapiens) (UniProt P40261). In words: Confirmatory Screen for Target Class Profiling of Small Molecule Inhibitors of Methyltransferases (AID 1745852). To be noted: MTase-Glo luminescence, SAH detection, recombinant enzyme; measured here: NNMT inhibition potency.
In experiment [6] the target is Phenylethanolamine N-methyltransferase (Homo sapiens) (UniProt P11086). Described as above. To be noted: MTase-Glo luminescence, SAH detection, recombinant enzyme; measured here: PNMT inhibition potency.
Where [7] appears, read: day 7, measured here: worm number.
Where [8] appears, read: day 7, measured here: worm number, day 3.
Setting [9] is: day 7, measured here: worm area, day 3.
Where [10] appears, read: measured here: PEO1 parental viability.

SMILES strings stand for the structures. This is one part of the list. Further columns of the screen follow, without active or inactive calls. For part of these data: Most of these compounds were active or inconclusive in the main read-out, so they are no random draw. Potencies come from curve fits of mixed quality, noted in brackets.

The term AC50 denotes the concentration at which the activity in the assay is half-maximal. For orientation: IC50 means the midpoint of a concentration-inhibition curve.

For the compound `O=c1ccc2ccc3occc3c2o1`, the half-maximal activity concentration (AC50) in experiment [1] (setting [7]) was 26.5 µM [falling, partial curve]; in experiment [1] (setting [8]), 0.746 µM [falling, partial curve, poor fit].

Take `CCCN1CC[C@@H]2c3cc(O)ccc3CC[C@@H]21`: in experiment [2], the IC50 was 13.7 µM [falling, partial curve].

In the case of `O=C1c2ccccc2C(=O)c2ccccc21`, the AC50 in experiment [1] (setting [9]) is 0.0092 µM [falling, full curve, poor fit].

With `CC[C@H]1/C=C\C=C/C[C@@H](C)[C@H](O)[C@@](C)(O)C(=O)[C@@H](C)[C@H](O)[C@@H](C)C(=O)[C@@H](C)[C@H](O)[C@@H](C)/C=C\C(=O)O[C@@H]2[C@H](C)[C@H](CC1)O[C@]1(CC[C@H](C)[C@H](C[C@@H](C)O)O1)[C@H]2C`, the AC50 is 6.48 µM [falling, full curve, poor fit] in experiment [1] (setting [9]); 2.58 µM [falling, partial curve, poor fit] in experiment [1] (setting [8]); 34.7 nM [falling, full curve, poor fit] in experiment [3] (setting [10]); 30.9 nM [falling, full curve] in experiment [3] (measured here: PEO4 viability).

As for `CCCN(CCC)[C@@H]1CCc2ccc3[nH]c(C#N)cc3c2C1`, the IC50 in experiment [2] is 6.81 µM [falling, partial curve].

Turning to `Cc1sc2c(c1C)C(c1ccc(Cl)cc1)=N[C@@H](CC(=O)OC(C)(C)C)c1nnc(C)n1-2`, the AC50 in experiment [1] (setting [7]) is 1.45 µM [falling, partial curve, poor fit]; in experiment [1] (setting [9]), 10.3 µM [falling, partial curve]; in experiment [1] (setting [8]) it was 1.03 µM [falling, full curve, poor fit]; in experiment [3] (setting [10]), 549 nM [falling, full curve]; in experiment [3] (measured here: PEO4 viability), 195 nM [falling, full curve]; in experiment [4] (TFE3-RCC viability, measured here: UOK124 cell viability), 8.33 µM [falling, partial curve]. In experiment [4] (TFE3-RCC viability, measured here: UOK145 cell viability), the concentration at half-maximal activity (AC50) was 13.2 µM [falling, partial curve]. Moreover, the z-score in experiment [4] (TFE3-RCC UOK109 viability, measured here: UOK109 Z-AUC) was -1.78; in experiment [4] (TFE3-RCC viability, measured here: UOK124 Z-AUC), -0.0542; in experiment [4] (TFE3-RCC viability, measured here: UOK145 Z-AUC), -0.727.

As to `CN1CCC[C@@H]1Cc1c[nH]c2ccc(Nc3ncccc3[N+](=O)[O-])cc12`, the IC50 in experiment [2] was 13.7 µM [falling, partial curve].

Turning to `CC(=O)OC1C[C@H](O[C@@H]2C(O)C[C@H](O[C@@H]3C(O)C[C@@H](OC4CC[C@]5(C)C(CCC6C5CC(O)[C@@]5(C)C(C7=CC(=O)OC7)CC[C@@]65O)C4)OC3C)OC2C)O[C@H](C)[C@H]1O[C@H]1OC(CO)C(O)C(O)C1O` (stereo partly specified), the AC50 in experiment [1] (setting [7]) was 23 µM [falling, single point].

On to `C#C[C@]1(O)CC[C@H]2[C@@H]3CC[C@H]4Cc5nc6nc7ccccc7n6cc5C[C@]4(C)[C@H]3CC[C@@]21C`, for which the concentration for half-maximal inhibition (IC50) in experiment [5] was 24.1 µM [falling, partial curve, poor fit]; in experiment [6], 24.1 µM [falling, partial curve].

`C[C@@H]1CC[C@H]2[C@@H](C)C(=O)O[C@@H]3O[C@@]4(C)CC[C@@H]1[C@]32OO4`: the half-maximal activity concentration (AC50) in experiment [1] (setting [7]) was 1.45 µM [falling, full curve, poor fit]; in experiment [3] (setting [10]) it was 1740 nM [falling, full curve, poor fit].

Consider `Nc1ncnc2c1ccn2[C@@H]1O[C@H](CO)[C@@H](O)[C@H]1O`, for which the concentration at half-maximal activity (AC50) in experiment [1] (setting [7]) was 9.16 µM [falling, partial curve, poor fit]; in experiment [1] (setting [9]), 29 µM [falling, single point]; in experiment [1] (setting [8]) it was 16.3 µM [falling, partial curve].

Turning to `Cc1[nH]c2ccc(Cl)cc2c1CCN(C)C`, the IC50 in experiment [2] is 19.2 µM [falling, partial curve].

For `CCCCN1[C@@H]2CC[C@H]1CC(OC(c1ccc(F)cc1)c1ccc(F)cc1)C2` (stereo partly specified), in experiment [2], the concentration for half-maximal inhibition (IC50) was 19.2 µM [falling, partial curve].

Regarding `CCCN1CCC[C@@H](c2cccc(O)c2)C1`, the IC50 in experiment [2] was 19.3 µM [falling, partial curve].

For the compound `Cc1sc2c(c1C)C(c1ccc(Cl)cc1)=N[C@@H](CC(=O)Nc1ccc(O)cc1)c1nnc(C)n1-2`, the AC50 in experiment [1] (setting [7]) was 36.5 µM [falling, single point]; in experiment [3] (setting [10]), 977 nM [falling, full curve]; in experiment [3] (measured here: PEO4 viability) it was 490 nM [falling, full curve].

On to `COc1ccc(-c2cc([C@H]3CN4CC[C@H]3C[C@@H]4CN)nc(C)n2)cc1OC`, for which, in experiment [5], the IC50 was 55.5 µM [falling, single point].

Regarding `Cc1nnc2n1-c1sc(CCc3ccc(CC(C)C)cc3)cc1C(c1ccccc1Cl)=NC2C` (stereo unspecified), the half-maximal inhibitory concentration (IC50) in experiment [5] was 21.5 µM [falling, partial curve].

Values taken from PubChem BioAssay (NCATS).
